# According to patent US5144006 (dated 1992):
# Experiment: general procedure: Boc solid-phase peptide synthesis; p-methylbenzhydrylamine resin (model peptides); Pam-resin (ET, BET)
# Settings: whole synthesis
substance,measurement,value
human defensin,difficulty met,Copious precipitation occurred during all stages of the dialysis
